Results: article PMC8142927, “Destabilization of EpCAM dimer is associated with increased susceptibility towards cleavage by TACE” (PeerJ, 2021)
Results are given in words; binding and its absence hold for the method and conditions named.

Target: EpEX TYloop^mut (K83D, P84D, L88D) (human) (UniProt P16422)
Experiment: SEC-MALS; SEC with right- and low-angle laser light scattering detectors (SEC-RALLS/LALLS, OMNISEC), Superdex 200 Increase 10/300 GL, 150 μg of protein injected per run, 25 °C, 0.5 ml/min, 20 mM HEPES, pH 7.5, 100 mM NaCl; dimer to monomers; both purified

B1: EpEX TYloop^mut (K83D, P84D, L88D) (domain or fragment, UniProt P16422 24-265)
chain: QEECVCENYKLAVNCFVNNNRQCQCTSVGAQNTVICSKLAAKCLVMKAEMQGSKLGRRADDEGADQNNDGLYDPDCDESGLFKAKQCQGTSMCWCVNTAGVRRTDKDTEITCSERVRTYWIIIELKHKAREKPYDSKSLRTALQKEITTRYQLDPKFITSILYENNVITIDLVQQSSQKTQNDVDIADVAYYFEKDVKGESLFHSKKMDLTVNGEQLDLDPGQTLIYYVDEKAPEFSMQGLKLE
**Q.** With B1 as the binder, how does the binding read?
**A.** The binding was “no binding (tested: 1.5 mg/ml (~50 µM))”.
